Source: patent US20030119719A1 (priority 1996, published 2003)

Experiment: peptide synthesis
Details: conjugation step

Row | Substance | conjugation yield
1 | N-[N′,N′,N′″,N′″-Tetrakis (hydroxy-carboxy-methyl)-N″-(carboxy-methyl)-diethylin-triamino]-Gly-Phe-(D-Trp)-Leu-Asp-Ile-Ile-Trp-OH | 11.3%
2 | N-[N′,N′,N′″,N′″-Tetrakis (hydroxy-carboxy-methyl)-N″-(carboxy-methyl)-diethylin-triamino]-[(8-amino-1-oxo-octyl)-Phe-(D-Trp)-Leu-Asp-Ile-Ile-Trp-OH] | 17.9%
